Over roughly 33,000 sequences, “E-score (-0.5 to 0.5)” has its median near -0.015; the highest 2% begin near 0.3. The list shows a part of the results.
target: T1, Abf1 (UniProt P14164); test: PBM E-score (8-mer binding enrichment) (E-score (-0.5 to 0.5)); higher = stronger / more preferred TF binding; conditions: protein concentration: 200 nM; construct: GST-full length
T1 sequence: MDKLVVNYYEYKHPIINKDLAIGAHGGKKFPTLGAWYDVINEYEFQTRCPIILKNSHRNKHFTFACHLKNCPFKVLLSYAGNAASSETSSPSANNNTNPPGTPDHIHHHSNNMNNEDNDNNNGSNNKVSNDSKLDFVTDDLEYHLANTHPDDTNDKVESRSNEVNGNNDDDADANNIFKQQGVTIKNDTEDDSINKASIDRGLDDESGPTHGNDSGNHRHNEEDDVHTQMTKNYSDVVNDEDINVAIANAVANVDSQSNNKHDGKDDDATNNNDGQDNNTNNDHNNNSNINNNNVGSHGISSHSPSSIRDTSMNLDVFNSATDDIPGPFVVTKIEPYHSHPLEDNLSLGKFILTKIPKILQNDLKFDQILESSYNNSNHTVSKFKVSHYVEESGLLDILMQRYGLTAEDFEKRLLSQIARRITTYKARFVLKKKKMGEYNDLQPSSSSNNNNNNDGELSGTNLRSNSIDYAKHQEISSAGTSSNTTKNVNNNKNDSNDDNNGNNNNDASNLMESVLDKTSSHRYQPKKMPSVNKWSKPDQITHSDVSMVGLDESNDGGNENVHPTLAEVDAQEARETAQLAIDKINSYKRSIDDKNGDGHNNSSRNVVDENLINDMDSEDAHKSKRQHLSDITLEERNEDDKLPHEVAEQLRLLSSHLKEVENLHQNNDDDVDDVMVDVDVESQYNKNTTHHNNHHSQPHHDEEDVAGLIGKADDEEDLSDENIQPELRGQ
Summary of the method: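 Universal all-10-mer Agilent arrays, fresh or stripped once, were converted to double-stranded form by primer extension. GST-tagged yeast transcription factors from PURExpress in vitro transcription/translation, full-length or DNA-binding domain only, were applied at about 100-200 nM and detected with fluorescent anti-GST. After masliner normalisation, the Universal PBM Analysis Suite scored each ungapped eight-base word together with its reverse complement by E-score.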

Sequence | PBM E-score
TCTGTGCA | 0.131
TGGAGAAA | -0.139
GCCTGACA | -0.187
CTATCTAC | 0.0715
AGGCTCAA | -0.133
CGCAATTC | -0.0731
ACGCGTAA | -0.0946
ATGAATGG | 0.0298
CAAAGCGC | -0.107
ACCCGGAT | -0.341
ACACGGCG | 0.305
CGGACCAG | -0.125
ATCCTTAG | -0.0241
ATCTCACG | 0.197
GGCTATAA | -0.0591
AGATAGAT | -0.144
ACCACAGG | -0.206
ATCCCGCC | -0.0962
GCAACAGA | 0.0303
AACCTCAT | 0.0609
AATGAACA | -0.0119
GTATACGA | 0.242
GGCACGCC | -0.283
CATTTTCC | 0.137
TTAAACAA | -0.0229

Sequence | PBM E-score
CATCCGGG | -0.161
CAAAAGGC | -0.00363
CGGGCCTA | -0.171
GACGAGCC | 0.142
GAACTTTA | -0.014
CATTGATC | 0.199
ATGTATAC | 0.0444
ACGACCCA | 0.0792
GCATGCTA | -0.0679
CGGCCACA | 0.0795
CCAAAGCC | -0.256
CCGTCTAG | 0.136
ACACAGTC | -0.0917
GTCTCTAA | 0.172
AACCGCAA | -0.0358
ACTACATA | 0.14
CTGATGCC | -0.0822
CTTTCTCC | -0.317
CTAATCAC | 0.251
GTTCCCGA | -0.0493
AAGGACTG | -0.0137
GCCCTAAC | -0.0553
CTCATGGC | -0.0558
TAGCTATA | 0.0132
ATGGAATC | 0.0484

A stretch from further up:
Sequence | PBM E-score
GAACTTTA | -0.014
CATTGATC | 0.199
ATGTATAC | 0.0444

The list goes on:

Sequence | PBM E-score
ACGTGCGA | 0.026
CTCACCAA | -0.0657
ATCAAGAG | 0.00184
ATTTGTCC | 0.132
CAGCACCC | -0.122
GCTGGCAC | 0.193
ATTGGACC | -0.133
CACATATG | -0.19
ACAATCCT | -0.122
ATGTGTCA | 0.233
AACCCTGC | -0.0986
GATTTATA | 0.166
CTGGCTAC | -0.122
CGGGCTGC | -0.159
GTACCTAA | 0.123
ACCCGCCC | -0.143
AACTCTGG | -0.0426
AATAATCC | -0.0862
CGTAGCTA | 0.15
ACGTCTTG | 0.117
CTATGGAC | 0.0299
TATCCACA | 0.0114
ATTGCTGG | -0.181
AGTTTCCA | -0.0143
AGAGGCTA | -0.289

Sequence | PBM E-score
GTAGGCAA | -0.0899
GTTCCTCA | -0.146
AGCAATAG | -0.13
AACATACA | -0.0901
ACCGTGCG | 0.315
CGGCTTAA | 0.0585
GATCTACC | -0.00382
CCCCACAG | -0.0954
ACGTCGTG | 0.213
CATTCTAC | 0.0157
AGCATCGC | -0.281
GACTCCTA | -0.222
AGCGTATG | -0.154
CCCGGGTA | -0.0101
AAACGTTG | -0.155
AACGACTT | 0.198
CTTAGAAG | -0.115
CAATACTA | 0.0883
CAGTCATG | -0.0906
ATTTTTTG | 0.0407
GCCCAAAA | -0.114
CCGAACGG | -0.0461
CTCCACAA | -0.187
GGGTAGGA | -0.0723
CTAAAGGA | 0.00369

Sequence | PBM E-score
AACCCTCC | -0.261
ATAAGTCG | 0.00336
AGTGGCAA | -0.0491
CACGCTCA | 0.0694
AGGAGACT | -0.117
AACGTTGG | -0.0683
CACCAAGA | -0.0277
ATTGGTCC | 0.0312
ATGGCGGA | -0.245
GCGGATAC | 0.0748
ATGTGCGA | -0.00914
CGTGCGCC | 0.122
GAGTACTA | 0.215
GAAATTTC | -0.256
AGGACCGC | -0.178
AGCAAAGA | -0.226
GGGGGTAC | -0.201
CGACTACA | 0.147
AGCTATAG | -0.217
ATGGACTG | 0.00521
CTGAAAGC | 0.0255
AATTTCTC | 0.00596
TCCACCAA | -0.0178
AGTTGAAT | 0.14
AAAGAGCT | -0.111

Sequence | PBM E-score
CAGCTCGC | -0.137
CGACAACC | 0.0851
AACCAAGA | -0.00678
AAGGGATA | 0.0355
GCAAGCGA | 0.143
ACTTGAGC | -0.138
GATTTTAC | 0.141
ACATGAGT | -0.0188
GTCGTGGA | 0.178
CCTATATC | -0.0418
AATTCCTC | -0.169
CTCATAAG | -0.0856
TCTGCGCA | 0.017
AGAGGTAC | -0.128
CGAAATAG | 0.00531
CTCGAAGC | -0.0234
AAGTAGAA | 0.0913
ACAAGACC | -0.143
ACCAGGAG | -0.163
GCCGCGAA | -0.173
CTAATAGA | 0.0745
ATATAGTA | 0.242
CATCCCCC | -0.31
CGTCCGAC | 0.275
GACGAAGC | 0.247

Sequence | PBM E-score
GGAACGAC | -0.00619
CTTCCATC | -0.162
CGACCAGA | -0.0204
GATCTTGC | 0.0639
ATCAGTTG | 0.0237
AAGCGCGA | -0.0643
GACATAGC | 0.234
ATCGCACG | 0.166
TCGGCAAA | -0.169
GAGCGATC | 0.13
AATAGACT | -0.0844
ACTCTCCC | -0.00877
ACCAAGGA | -0.154
ATCGGGGC | -0.146
CCGTGTAC | 0.246
CAGTACTA | -0.0419
ATAACCCC | -0.0251
AGACGGGG | 0.0661
GGCGAAGA | -0.146
CTGAATAA | 0.0519
TAATTATA | 0.284
ACCACTTG | -0.0975

4 records drawn at random from those above:
Sequence | PBM E-score
ATCGGGGC | -0.146
ACCACTTG | -0.0975
GATCTTGC | 0.0639
TCGGCAAA | -0.169

Source: the supplement of paper PMC3334620
